Test results taken from patent publication US20230340607A1, “COMPOSITIONS AND METHODS FOR DETECTING GENE FUSIONS OF RAD51AP1 AND DYRK4 AND FOR DIAGNOSING AND TREATING CANCER” (UNIVERSITY OF PITTSBURGH-OF THE COMMONWEALTH SYSTEM OF …, priority 2020, published 2023).

Biological target: MEK
Experiment: co-immunoprecipitation with anti-RAD51AP1 antibody from T47D cell lysate, immunoblot

B1: RAD51AP1-DYRK4 fusion protein (E9-E2 variant) (protein)
chain: MVRPVRHKKPVNYSQFDHSDSDDDFVSATVPLNKKSRTAPKELKQDKPKPNLNNLRKEEIPVQEKTPKKRMALDDKLYQRDLEVALALSVKELPTVTTNVQNSQDKSIEKHGSSKIETMNKSPHISNCSVASDYLDLDKITVEDDVGGVQGKRKAASKAAAQQRKILLEGSDGDSANDTEPDFAPGEDSEDDSDFCESEDNDEDFSMRKSKVKEIKKKEVKVKSPVEKKEKKSKSKCNALVTSVDSAPAAVKSESQSLPKKVSLSSDTTRKPLEIRSPSAESKKPKWVPPGLKWMLKSQGNVI
Q: For B1, which binding is on record?
A: no binding

No constants are given. Whether binding was seen depends on the method and setting. Binding seen in cells or lysates may run through a third protein. Tags and fused reporters may be left off the sequences shown.
